# Results as given in PubChem BioAssay AID662 (National Center for Advancing Translational Sciences (NCATS), 2007).
# “And” between values parts separate entries of the source, which are not always exact repeats. Equal values may be shown once. The list shows a part of the results. Shown are side measurements of this screen, not its main read-out; they come without a call. Most of these compounds were active or inconclusive in the main read-out, so they are no random draw. Words in brackets tell the shape of the fitted curve; partial curves, single points and poor fits give uncertain potencies.
# Assay: Cell signaling CRE-BLA (Fsk stim)
# Details: CHO CRE-bla reporter (cAMP response element driving beta-lactamase), forskolin EC10, beta-lactamase ratio; measured here: 460 nm blue channel
# Summary of the method: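 AC50 values, positive or negative, reflect shifts in EC10 NKH 477-induced CRE-bla reporter activity in CHO cells. Incubation lasted 3 h at 37 °C before CCF4 substrate (2 h, room temperature) and ratiometric 460/530 nm reading.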
row,Compound,AC50
1,COc1ccc2c(c1)CCc1c(C(=O)Nc3ccn(Cc4ccc(C)cc4)n3)noc1-2,"10 µM [falling, single point]"
2,CCOC(=O)c1sc(Nc2nc3c(OC)cccc3s2)nc1C,"10 µM [rising, partial curve]"
3,COc1ccccc1-c1c(C)nn2c(C)c(C(C)=O)cnc12,"10 µM [rising, partial curve]"
4,Cc1ccc(NC(=O)NCC(c2cccnc2)N2CCOCC2)cc1 (stereo not drawn),"3.98 µM [falling, partial curve]"
5,CCn1c2ccccc2c2nn(C)c(=N)nc21,"10 µM [falling, partial curve]"
6,CCCC(=O)c1ccc(N2CCN(C(=O)c3ccccc3Br)CC2)c(F)c1,"12.6 µM [falling, single point]"
7,Cc1ccc2cc(CN(CC3CCCO3)S(=O)(=O)c3c(C)ccc4nsnc34)c(=O)[nH]c2c1 (stereo not drawn),"25.1 µM [falling, single point]"
8,COc1ccc(CCNC2CC(=O)N(CCc3ccccc3)C2=O)cc1OC (stereo not drawn),"0.316 µM [rising, partial curve, poor fit]"
9,C=C[C@@]1(C)CC(=O)[C@@]2(O)[C@@]3(C)[C@H](O)CCC(C)(C)[C@@H]3[C@H](O)[C@H](OC(C)=O)[C@]2(C)O1,"0.251 µM [rising, full curve]"
10,CCNc1ncc2nc(C)c(=O)n(CCC#N)c2n1,"10 µM [rising, partial curve]"
11,CCCN(CCC)S(=O)(=O)c1ccc(C(=O)Nc2nnc(-c3cc(OC)cc(OC)c3)o2)cc1,"1.58 µM [falling, partial curve]"
12,COC(=O)c1c(-c2cccc(C)c2)csc1N,"3.98 µM [rising, single point]"
13,COc1ccc(-c2cn3cc(Cl)ccc3n2)cc1OC,"12.6 µM [rising, partial curve]"
14,Cc1nc(NCc2ccccc2)c2nc(-c3ccccc3)n(CCCN3CCOCC3)c2n1,"10 µM [rising, partial curve]"
15,CCCn1c(=O)c2ccccc2n2c(SCC(=O)c3cc(C)n(CCOC)c3C)nnc12,"0.126 µM [falling, full curve]"
16,CCOC(=O)c1sc(=S)n(-c2cc(F)ccc2F)c1N,"3.16 µM [rising, full curve]"
17,N=c1c(S(=O)(=O)c2ccccc2)cc2c(=O)n3ccccc3nc2n1CC1CCCO1 (stereo not drawn),"15.8 µM [rising, partial curve]"
18,C=CCn1c(Cc2ccc(OC)cc2)nnc1SCc1nc2ccccc2c(=O)[nH]1,"25.1 µM [rising, single point]"
19,O=S(=O)(NCc1ccc2c(c1)OCO2)c1cccc2nsnc12,"2.51 µM [falling, single point]"
20,Cc1ccc(CCNC(=O)c2nnn(-c3cccc(C)c3)c2N)cc1,"25.1 µM [falling, single point]"
21,COc1ccc2[nH]cc(CCNc3cc(-c4c(C)noc4C)ncn3)c2c1,"12.6 µM [rising, partial curve]"
22,CCn1c(CNC(=O)Cc2ccc(OC)cc2)nnc1SCC(=O)Nc1nccs1,"10 µM [falling, single point]"

row,Compound,AC50
1,CN1c2ccccc2C(C)(C)C12C=Cc1cc(O)ccc1O2 (stereo not drawn),"25.1 µM [falling, single point]"
2,CC[N+](CC)(CC)CC(=O)Nc1c(C)cccc1C,"31.6 µM [falling, single point]"
3,CSc1nnc(Cn2c(=O)sc3ccccc32)n1CCc1ccccc1,"10 µM [rising, single point]"
4,COCCn1c(C)cc(C(=O)CSc2ncn[nH]2)c1C,"12.6 µM [falling, partial curve]"
5,COc1ccc(OC)c2[nH]c(=O)c(CCNC(=O)COc3ccccc3)cc12,"12.6 µM [rising, single point]"
6,COc1cc(-c2ccc(=O)[nH]n2)ccc1OC(F)F,"3.98 µM [rising, partial curve] and 2 µM [rising, full curve]"
7,COCc1nnc(NS(=O)(=O)c2ccc(C)cc2)s1,"3.98 µM [falling, full curve]"
8,Cc1cc(=O)oc2cc(OCc3nnc(-c4ccccc4Br)o3)ccc12,"12.6 µM [rising, single point]"
9,CCCCN1c2ccccc2N(CCCO)c2cc(C)nnc21,"2 µM [rising, full curve]"
10,COC(=O)[C@@]1(Cc2ccc(OC)cc2)[C@H]2c3cc(C(=O)N(C)C)n(CCc4ccc(OC)c(Br)c4)c3C[C@H]2CN1C(=O)c1ccccc1,"5.01 µM [rising, partial curve]"
11,CCC(C(=O)OC)n1cnc2c(cnn2-c2ccc(Cl)cc2)c1=O (stereo not drawn),"0.0501 µM [rising, full curve]"
12,COc1cccc(-c2nc(NC3CCNCC3)c3ccccc3n2)c1,"5.01 µM [rising, partial curve]"
13,Nc1nc(-c2cccnc2)nc(N2CCCCC2)n1,"25.1 µM [rising, single point]"
14,Cc1cc(S(=O)(=O)N2CCN(Cc3ccc4c(c3)OCO4)CC2)cc(C)c1N1CCCC1=O,"31.6 µM [falling, single point]"
15,CNC(=O)[C@H]1O[C@H](n2cnc3c(NCc4cccc(I)c4)nc(Cl)nc32)[C@@H](O)[C@@H]1O,"7.94 µM [rising, partial curve]"
16,O=C1C(C=Nc2ccccc2O)=C(O)c2ccccc21,"0.316 µM [falling, full curve]"
17,Cc1sc2nc(CN(Cc3cccs3)C(=O)C3CC3)[nH]c(=O)c2c1C,"10 µM [rising, single point]"
18,Cc1ccc(C(=O)N2CCN(C(=O)c3ccc(C)c(C)c3)C(C)C2)cc1C (stereo not drawn),"1.26 µM [falling, partial curve]"
19,CCOC(=O)c1cc(NC(=O)NCc2ccco2)c(C)nc1C,"3.16 µM [falling, partial curve]"
20,CCOC(=O)Cn1ncc2c(=O)oc3ccccc3c21,"2.51 µM [falling, single point]"
21,CN1C(=O)C2(NCCc3c2[nH]c2ccccc32)c2ccccc21 (stereo not drawn),"5.01 µM [falling, partial curve, poor fit]"

# Another view of 2 compounds above:
row | Compound | AC50
4 | COCCn1c(C)cc(C(=O)CSc2ncn[nH]2)c1C | 12.6 µM [falling, partial curve]
13 | Nc1nc(-c2cccnc2)nc(N2CCCCC2)n1 | 25.1 µM [rising, single point]
